Laboratory results: paper PMC8649957

Chains of the proteins cited; added tags and fusions are not shown. Lines headed by an entry give the natural chain unless they say otherwise; changes in a name come on top.
UniProt Q9SE45: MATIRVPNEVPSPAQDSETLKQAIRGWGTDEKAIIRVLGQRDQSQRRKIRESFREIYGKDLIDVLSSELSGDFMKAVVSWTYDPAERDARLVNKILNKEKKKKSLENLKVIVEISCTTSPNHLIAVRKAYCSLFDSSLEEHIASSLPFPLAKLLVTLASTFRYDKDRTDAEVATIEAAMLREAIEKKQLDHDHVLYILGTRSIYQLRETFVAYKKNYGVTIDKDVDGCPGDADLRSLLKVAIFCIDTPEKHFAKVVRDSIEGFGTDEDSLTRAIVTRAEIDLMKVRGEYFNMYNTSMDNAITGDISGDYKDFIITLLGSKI
UniProt Q9XEE2: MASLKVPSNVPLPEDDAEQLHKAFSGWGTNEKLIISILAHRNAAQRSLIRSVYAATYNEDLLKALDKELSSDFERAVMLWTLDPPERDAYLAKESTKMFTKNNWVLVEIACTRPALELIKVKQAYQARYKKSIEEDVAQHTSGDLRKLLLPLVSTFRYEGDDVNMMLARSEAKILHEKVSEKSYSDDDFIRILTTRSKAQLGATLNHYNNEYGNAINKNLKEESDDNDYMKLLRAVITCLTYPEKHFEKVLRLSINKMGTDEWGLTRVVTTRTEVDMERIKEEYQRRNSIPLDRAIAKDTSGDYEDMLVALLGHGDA
UniProt Q96524: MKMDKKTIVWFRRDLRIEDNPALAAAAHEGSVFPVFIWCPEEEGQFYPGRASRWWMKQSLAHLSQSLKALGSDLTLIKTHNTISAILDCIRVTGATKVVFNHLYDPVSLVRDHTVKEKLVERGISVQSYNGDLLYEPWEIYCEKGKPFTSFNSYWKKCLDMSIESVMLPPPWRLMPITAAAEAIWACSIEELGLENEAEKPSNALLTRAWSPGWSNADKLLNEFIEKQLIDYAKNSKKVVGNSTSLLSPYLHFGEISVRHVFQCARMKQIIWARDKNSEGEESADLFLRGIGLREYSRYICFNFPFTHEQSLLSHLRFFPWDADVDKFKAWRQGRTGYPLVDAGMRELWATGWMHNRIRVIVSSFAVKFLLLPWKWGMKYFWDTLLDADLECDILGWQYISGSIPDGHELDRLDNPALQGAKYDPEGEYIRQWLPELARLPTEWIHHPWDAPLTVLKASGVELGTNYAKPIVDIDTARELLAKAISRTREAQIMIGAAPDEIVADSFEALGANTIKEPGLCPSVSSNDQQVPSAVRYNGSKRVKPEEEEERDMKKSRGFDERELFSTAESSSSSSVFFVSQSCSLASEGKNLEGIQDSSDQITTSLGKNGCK

Tests used:
[1] = biological target: AtANN3-YNE (Arabidopsis thaliana) (UniProt Q9SE45); assay: split reporter; BiFC with split YFP; the two plasmids co-transformed into Arabidopsis leaf cell protoplasts, incubated 16 h in the dark at 23°C; fluorescence microscopy
[2] = biological target: AtANN2-YNE (Arabidopsis thaliana) (UniProt Q9XEE2); assay: as above
[3] = biological target: AtANN2-GST (Arabidopsis thaliana) (UniProt Q9XEE2); assay: pull-down; GST pull-down in vitro with purified proteins expressed in E. coli; analysed with anti-GST or anti-HIS antibodies; both purified
[4] = biological target: AtANN3-GST (Arabidopsis thaliana) (UniProt Q9SE45); assay: as above

binding [1]	binding [2]	binding [3]	binding [4]	Substance
binds	binds			AtCRY2-YCE (from UniProt Q96524 1-612)
		binds	binds	AtCRY2-HIS (from UniProt Q96524 1-612)

These are yes or no findings as the source states them, for the method shown. Binding calls can cover weak binding; strength is not graded here. For some of these results: Binding seen in cells or lysates may run through a third protein.
